Measured data: PubChem BioAssay AID1224828 (NIAID, 2016)
Assay: 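Knock-downs that increase or decrease LPS-induced p65 nuclear translocation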 (primary screen). System: mouse RAW264.7 G9 macrophage reporter cells (GFP-p65, Tnf promoter-mCherry). Reagents: siRNA pool against mouse genes, 100 nM. Duration: 2 days siRNA transfection, then 40 min LPS before fixation. Conditions: LPS (Salmonella minnesota R595) at 10 ng/ml. Detection: 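Microscopy ratio of nuclear to perinuclear-ring GFP-p65 signal, scaled to the plate median; gene score is the average of two replicate robust z-scores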. Scale: p65 translocation robust z-score: higher = more nuclear NF-kappaB p65 after LPS than the plate median; nuclear/cytoplasmic p65 ratio: higher = more nuclear NF-kappaB p65. Active means: 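Active if robust z is above 3.3 (negative regulators) or below -1.56, the Tlr4 control median (positive regulators); activity score 50 or more; control wells not called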. Calls: active = hit (p65 shift raised or lowered); inactive = no clear change.
In all, the deposit lists about 17,000 reagents; below is a part drawn at random. 762 of them (4.5%) were called active. 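Active calls include both raised and lowered p65 entry, mostly lowered; wells with fewer than 50 cells lack a z-score.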 Raw values vary from plate to plate and are shown uncorrected. Unmarked entries are inactive. Some reagents were tested in more than one well and are listed for each. No sequences are given here.

| gene | p65 translocation robust z-score | nuclear/cytoplasmic p65 ratio, rep 1 | nuclear/cytoplasmic p65 ratio, rep 2 | low cell count flag |
| --- | --- | --- | --- | --- |
| Stmn3 | -1.78 (active) | 1.28 | 1.31 | enough cells to score |
| Nat9 | 1.09 | 1.66 | 1.59 | enough cells to score |
| Atosa | -0.34 | 1.49 | 1.83 | enough cells to score |
| Pigs | -0.31 | 1.4 | 1.11 | enough cells to score |
| C1ql3 | – | 1.39 | 1.34 | fewer than 50 cells per well; well left out of scoring |
| Fzd5 | 0.3 | 1.52 | 1.66 | enough cells to score |
| Tmem44 | 0.72 | 1.51 | 1.66 | enough cells to score |
| Tpst2 | – | 0 | 0 | fewer than 50 cells per well; well left out of scoring |
| Rnf24 | 0.53 | 1.53 | 1.25 | enough cells to score |
| Art2a | 0.91 | 1.64 | 1.74 | enough cells to score |
| Gngt1 | 1.24 | 1.82 | 1.73 | enough cells to score |
| Or2t48 | -0.36 | 1.59 | 1.38 | enough cells to score |
| Ppan | -0.91 | 1.37 | 1.29 | enough cells to score |
| Serbp1 | 0.55 | 1.48 | 1.47 | enough cells to score |
| Far1 | – | 1.28 | 1.19 | fewer than 50 cells per well; well left out of scoring |
| Zkscan8 | 0.46 | 1.51 | 1.28 | enough cells to score |
| Ear1 | – | 1.27 | 1.2 | fewer than 50 cells per well; well left out of scoring |
| Ccdc157 | -0.09 | 1.25 | 1.29 | enough cells to score |
| Cys1 | 0.25 | 1.6 | 1.84 | enough cells to score |
| Slc4a1ap | -1.33 | 1.15 | 1.51 | enough cells to score |
| Arl6ip1 | 1.7 | 1.94 | 1.6 | enough cells to score |
| Gbp5 | -1.82 (active) | 1.37 | 1.17 | enough cells to score |
| Qrfprl | – | 1.41 | 1.45 | fewer than 50 cells per well; well left out of scoring |
| Tbc1d22b | 0.34 | 1.49 | 1.55 | enough cells to score |
| Mybpc1 | – | 1.24 | 1.28 | fewer than 50 cells per well; well left out of scoring |
| Rab3gap2 | -0.66 | 1.44 | 1.58 | enough cells to score |
| Hagh | -0.08 | 1.39 | 1.4 | enough cells to score |
| Pde6h | -1.36 | 1.26 | 1.24 | enough cells to score |
| Casp8ap2 | 0.57 | 1.68 | 1.72 | enough cells to score |
| Kcnj6 | 0.57 | 1.54 | 1.71 | enough cells to score |
| Clcn4 | 1.62 | 1.8 | 2.09 | enough cells to score |
| Atp8a2 | 0.03 | 1.7 | 1.54 | enough cells to score |
| Armc7 | 0.29 | 1.68 | 1.64 | enough cells to score |
| Rrad | -0.53 | 1.41 | 1.47 | enough cells to score |
| Rnps1 | 1.06 | 1.55 | 1.34 | enough cells to score |
| Socs2 | 0.94 | 1.62 | 1.76 | enough cells to score |
| Necap2 | – | 1.56 | 1.69 | fewer than 50 cells per well; well left out of scoring |
| Kctd9 | -1.7 (active) | 1.34 | 1.18 | enough cells to score |
| Rmi1 | 1.25 | 1.41 | 1.45 | enough cells to score |
| Hnrnpa1 | – | 1.19 | 1.08 | fewer than 50 cells per well; well left out of scoring |
| Samd11 | -0.62 | 1.56 | 1.66 | enough cells to score |
| Vps50 | -0.39 | 1.32 | 1.39 | enough cells to score |
| Gli3 | -2.05 (active) | 1.14 | 1.13 | enough cells to score |
| Sirt7 | -0.29 | 1.4 | 1.19 | enough cells to score |
| Atcay | 0.79 | 1.6 | 1.74 | enough cells to score |
| Prps1l1 | 0.19 | 1.64 | 1.47 | enough cells to score |
| Prps1l1 | 0.4 | 1.32 | 1.6 | enough cells to score |
| Fkrp | -1.05 | 1.32 | 1.21 | enough cells to score |
| Jph1 | 0.3 | 1.46 | 1.48 | enough cells to score |
| Cgrrf1 | -0.61 | 1.45 | 1.59 | enough cells to score |
| Myh11 | -0.24 | 1.43 | 1.29 | enough cells to score |
| Chodl | -0.64 | 1.5 | 1.68 | enough cells to score |
| Kcne1 | -0.31 | 1.4 | 1.37 | enough cells to score |
| Evl | -0.45 | 1.47 | 1.25 | enough cells to score |
| Cat | 0.14 | 2.04 | 1.4 | enough cells to score |
| Kmt2b | 0.29 | 1.59 | 1.72 | enough cells to score |
| Gtf3c4 | 1.27 | 1.59 | 1.55 | enough cells to score |
| Thnsl2 | 1.05 | 1.57 | 1.35 | enough cells to score |
| Orc5 | -2.29 (active) | 1.1 | 1.01 | enough cells to score |

Single entries from the entries so far:
Value of Cgrrf1 under “nuclear/cytoplasmic p65 ratio, rep 2”: 1.59
Socs2, nuclear/cytoplasmic p65 ratio, rep 2 = 1.76
Samd11, nuclear/cytoplasmic p65 ratio, rep 1: 1.56
For “nuclear/cytoplasmic p65 ratio, rep 1”, Mybpc1 has 1.24
Value of Tmem44 under “nuclear/cytoplasmic p65 ratio, rep 1”: 1.51
